Laboratory results: PubChem BioAssay AID602441 (National Center for Advancing Translational Sciences (NCATS), 2012)
Out of some 1,300 compounds screened, fewer than 10 were called active. Another 9% or so got no clear call; they are omitted. Calls come from the whole dose curve; as a rule, active = well fitted curve in the direction sought with a large enough effect; inconclusive = small, poorly fitted or top-dose-only effect, or another doubt; inactive = no such curve, though single readings can be large or run the other way. This is one part of the list.

Experiment: qHTS for antagonists of the Thyroid Stimulation Hormone Receptor: Hit Validation in Parental Cell Line; note: 0% is about no effect
Settings: parental HEK293 cells lacking TSHR, counter-screen; series mostly up to 56.9 µM; activity change, negative = inhibition: at the top concentration
Summary of the method: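 Counterscreen in untransfected parental HEK-EM 293 cells. Lysate cAMP displaces cAMP-d2 from cryptate-tagged anti-cAMP antibody, and homogeneous TR-FRET is read at 665 nm with 337 nm excitation after stimulation.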

Which “activity change, negative = inhibition” value does the source give for `O=C(c1cc(COc2cccc3cnccc23)on1)N1CCCC(CCCO)C1` (configuration not stated) here?
The value was inactive: -1.72%.

For `CCC(=O)OCCNc1cc(Sc2nc3ccccc3[nH]2)c2nonc2c1[N+](=O)[O-]`, which “activity change, negative = inhibition” value is on record?
The value was inactive: -1.9%.

Which “activity change, negative = inhibition” value does the source give for `Cc1ccc(C(=O)COC(=O)CCN2C(=O)C3C4CCC(C4)C3C2=O)cc1[N+](=O)[O-]` (configuration not stated) here?
The value was inactive: 0.395%.

With `COc1ccc(C(=O)/C=C/Nc2ccc(S(=O)(=O)Nc3cccc(C(C)=O)c3)cc2)cc1` as the compound, how does the “activity change, negative = inhibition” value read?
Its value is inactive: -4.49%.

Which “activity change, negative = inhibition” value does the source give for `Cc1ccc(NC(=O)Cn2nnc(C(=O)NCCc3ccccc3)c2N)c(C)c1` here?
The value was inactive: 5.5%.

For `CC(C)c1ccc(/C=C/C(=O)NCCC2=CCCCC2)cc1`, which “activity change, negative = inhibition” value is on record?
Its value is inactive: 5.35%.

Which “activity change, negative = inhibition” value does the source give for `COc1ccc(-c2nnc(NC(=O)c3ccc4c(c3)OCCO4)o2)cc1` here?
Its value is inactive: -3.16%.

With `COc1cc2c(cc1OC)CN(C(=S)NC(=O)c1ccccc1)CC2` as the compound, how does the “activity change, negative = inhibition” value read?
The value was inactive: 0.268%.

Which “activity change, negative = inhibition” value does the source give for `O=C(Nc1ccncc1)C1CCN(S(=O)(=O)c2cccc(C(F)(F)F)c2)CC1` here?
Its value is inactive: 0.358%.

Which “activity change, negative = inhibition” value does the source give for `COc1ccc(NC(=O)/C(Cl)=C(/Cl)S(=O)Cc2ccc(Cl)cc2)cn1` (configuration not stated) here?
Its value is inactive: 8.76%.

Which “activity change, negative = inhibition” value does the source give for `O=c1[nH]c(=S)[nH]c2c1CN(Cc1ccc(F)cc1)CC2` here?
The value was inactive: 3.31%.

With `COc1cccc(CNC(=O)CN2C(=O)CSc3ccc(S(=O)(=O)N4CCOCC4)cc32)c1` as the compound, how does the “activity change, negative = inhibition” value read?
The value was inactive: 2.37%.

For `CC1CCCC(N2CCN(S(=O)(=O)c3ccccc3)CC2)C1` (configuration not stated), which “activity change, negative = inhibition” value is on record?
Its value is inactive: 4.68%.

For `Cc1nn(-c2ccc(N3CCOCC3)nn2)c(C)c1CCC(=O)NCc1ccccc1F`, which “activity change, negative = inhibition” value is on record?
The value was inactive: 3.95%.

For `Cc1ccc(N2C(=O)C3C4C=CC(CC4)C3C2=O)cc1Cl` (configuration not stated), which “activity change, negative = inhibition” value is on record?
The value was inactive: -0.0062%.

Which “activity change, negative = inhibition” value does the source give for `CCCCCCSc1ccc(-c2nc3ccc(Cl)cn3c2NCCCC)cc1OC` here?
Its value is inactive: 4.59%.

Which “activity change, negative = inhibition” value does the source give for `COC(=O)c1nc2n(n1)C(c1cccc(Cl)c1)C1=C(CCCC1=O)N2` (configuration not stated) here?
Its value is inactive: 4.65%.

Which “activity change, negative = inhibition” value does the source give for `CCOC(=O)COc1ccc(S(=O)(=O)NCCC2=CCCCC2)cc1` here?
The value was inactive: 1.89%.

Which “activity change, negative = inhibition” value does the source give for `Cc1nc2ncnn2c(N2CCCC(C(=O)Nc3ccccc3Br)C2)c1C` (configuration not stated) here?
Its value is inactive: 5.02%.

With `N#CC1=C(N)NC(SCc2ccc(Br)cc2)=C(C#N)C12CCCCC2` as the compound, how does the “activity change, negative = inhibition” value read?
Its value is inactive: -3.27%.

With `O=C(NC1C2CC3CC(C2)CC1C3)c1ccc2c(c1)OCO2` (configuration not stated) as the compound, how does the “activity change, negative = inhibition” value read?
The value was inactive: 4.95%.

With `OCCSc1nnc(Nc2ccccc2)s1` as the compound, how does the “activity change, negative = inhibition” value read?
Its value is inactive: 1.36%.

Which “activity change, negative = inhibition” value does the source give for `Cc1ccc(C(=O)C2=C(O)C(=O)N(c3ncccn3)C2c2ccccc2F)o1` (configuration not stated) here?
Its value is inactive: 34.2%.

For `CC(c1nnnn1C1CCCCC1)N(Cc1ccccc1)Cc1cccnc1` (configuration not stated), which “activity change, negative = inhibition” value is on record?
The value was inactive: 2.1%.

For `COc1ccc(OC)c(NC(=O)c2nc(S(=O)(=O)Cc3ccccc3)ncc2Cl)c1`, which “activity change, negative = inhibition” value is on record?
The value was inactive: 0.0734%.

With `CC1(C)CC(O)CC(C)(C)N1CC(O)COCc1ccccc1` (configuration not stated) as the compound, how does the “activity change, negative = inhibition” value read?
Its value is inactive: -0.149%.

Which “activity change, negative = inhibition” value does the source give for `N#Cc1c(F)cccc1N1CCN(Cc2ccc3c(c2)OCO3)CC1` here?
Its value is inactive: 5%.

Which “activity change, negative = inhibition” value does the source give for `CCN(CC)S(=O)(=O)c1ccc(Oc2ccc(S(=O)(=O)N(CC)CC)cc2)cc1` here?
The value was inactive: -1.1%.

For `COc1ccc(CCNc2ncnc3c2[nH]c2cc(OC)c(OC)cc23)cc1OC`, which “activity change, negative = inhibition” value is on record?
Its value is inactive: -8.76%.

Which “activity change, negative = inhibition” value does the source give for `Cc1ccc2c(CN3CCN(S(=O)(=O)c4ccc5c(c4)OCCO5)CC3)cc(=O)oc2c1C` here?
The value was inactive: 6.91%.

For `COCCNc1oc(Cc2cccc3ccccc23)nc1C#N`, which “activity change, negative = inhibition” value is on record?
Its value is inactive: 3.13%.

For `Cc1cc(/C=N/n2c(COc3ccccc3C)nc3ccccc3c2=O)c(O)c([N+](=O)[O-])c1`, which “activity change, negative = inhibition” value is on record?
Its value is inactive: 0.666%.

With `O=C(CSc1nc2cc(Cl)c(Cl)cc2[nH]1)c1ccc2c(c1)OCO2` as the compound, how does the “activity change, negative = inhibition” value read?
The value was inactive: -8.61%.

For `CC(=O)OCCNc1cc(Sc2nc3ccccc3[nH]2)c2nonc2c1[N+](=O)[O-]`, which “activity change, negative = inhibition” value is on record?
The value was inactive: -1.17%.

Which “activity change, negative = inhibition” value does the source give for `COc1ccc(Nc2ccc([N+](=O)[O-])c3nonc23)c(OC)c1` here?
The value was inactive: 1.44%.

For `S=c1[nH]nc(-c2ccccc2Cl)n1Cc1ccccc1`, which “activity change, negative = inhibition” value is on record?
The value was inactive: -1.47%.

With `Cc1ccc(-n2[nH]c(C)c(/C=N/Nc3ccc([N+](=O)[O-])cc3[N+](=O)[O-])c2=O)cc1C` as the compound, how does the “activity change, negative = inhibition” value read?
The value was inactive: -8.57%.

For `Nc1ccn(Cc2ccccc2F)n1`, which “activity change, negative = inhibition” value is on record?
Its value is inactive: 6.96%.

With `CN(CC(=O)Nc1ccccc1Cl)C(=O)COC(=O)c1nc(Cl)c(Cl)c(Cl)c1Cl` as the compound, how does the “activity change, negative = inhibition” value read?
The value was inactive: -3.78%.

With `Cc1ccccc1NC1c2ccccc2C(=O)N1Cc1ccco1` (configuration not stated) as the compound, how does the “activity change, negative = inhibition” value read?
The value was inactive: 3.3%.

With `Cc1ccc(NC(=O)COc2cccc3c2OC(C)(C)C3)c(O)c1` as the compound, how does the “activity change, negative = inhibition” value read?
The value was inactive: -0.793%.

With `CCCCC(=O)N1CCN(c2nc3ccc(Br)cc3s2)CC1` as the compound, how does the “activity change, negative = inhibition” value read?
The value was inactive: -4.27%.

With `O=[N+]([O-])c1ccc(O)c(/C=N/NC(=S)Nc2ccc(Cl)cc2Cl)c1` as the compound, how does the “activity change, negative = inhibition” value read?
Its value is inactive: -8.37%.

With `O=C(Oc1c(Br)cc([N+](=O)[O-])cc1Br)c1cccnc1` as the compound, how does the “activity change, negative = inhibition” value read?
Its value is inactive: -4.35%.

For `COC(=O)c1sc(-c2ccc(C(C)(C)C)cc2)cc1NC(=O)/C=C/C(=O)O`, which “activity change, negative = inhibition” value is on record?
The value was inactive: 3.56%.

For `COc1ccc(C(NC(=O)c2c(F)c(F)c(F)c(F)c2F)c2ccccc2)cc1` (configuration not stated), which “activity change, negative = inhibition” value is on record?
Its value is inactive: -4.7%.

With `CCCOc1ccc(CSc2nc3ccccc3[nH]2)cc1` as the compound, how does the “activity change, negative = inhibition” value read?
The value was inactive: 2.29%.

For `CN(C)S(=O)(=O)Oc1cccc(C(=O)Nc2ccc(Cl)c(Cl)c2)c1`, which “activity change, negative = inhibition” value is on record?
Its value is inactive: -6.85%.

For `CCOc1cc(C(=O)NC2CC(C)(C)NC(C)(C)C2)cc(OCC)c1OCC`, which “activity change, negative = inhibition” value is on record?
Its value is inactive: 4.14%.

For `COc1cccc(COc2cc3ccccc3nc2C)c1`, which “activity change, negative = inhibition” value is on record?
Its value is inactive: 1.35%.

With `COc1ccc(-c2nc(CS(=O)CC(=O)NCc3ccccc3)c(C)o2)cc1OC` (configuration not stated) as the compound, how does the “activity change, negative = inhibition” value read?
Its value is inactive: 5.21%.

For `N#CC(C#N)=C1C=CC=CN1/C(=C\c1ccco1)C(=O)c1ccc(Br)cc1`, which “activity change, negative = inhibition” value is on record?
The value was inactive: -3.31%.
